Measurements from patent US20100240537A1, “Substituted 6-(alkylbenzylamino)purine derivatives for use as cytokinin receptor antagonists and preparations containing these derivatives” (priority 2007, published 2010).
At least one compound was matched to its structure with a doubt left.

Legend:
[1] = test system: Arabidopsis seedlings (wild-type, receptor double mutants); experiment: Primary root length of Arabidopsis seedlings; assay type: in vivo
Description: FIG. 5 Effect of compound 8 on primary root length of Arabidopsis seedlings. Increase in the length of the primary roots observed in ahk2 ahk3 double mutant seedlings (6 DAG) grown on medium containing 1 μM compound 8.
However, when 1 μM compound 8 was applied to the growth media of ahk2 ahk3 double mutants, significant increase (about 15%) in the length of the primary roots was observed compared to untreated control (FIG. 5).

[2] = test system: A. thaliana wild-type and double receptor mutant seedlings; experiment: Lateral root formation of Arabidopsis seedlings; assay type: in vivo, Arabidopsis thaliana
Description: (A) Number of lateral roots formed by wild-type Arabidopsis seedlings (11 DAG)—from left: DMSO control, formation in the presence of cytokinin BA, or compound 8, and antagonism when both compounds were added. (B) Increase in number of lateral roots found with WT and double-receptor mutant seedlings grown on medium containing compound 8.
Cytokinins are known as negative regulators of root growth and development. We grew A. thaliana wild-type and double receptor mutant seedlings with decreased perception of cytokinins on MS medium containing either 1 and 5 nM cytokinin BA to confirm the cytokinin inhibitory effect on initiation of lateral roots, or 1 and 10 nM compound 8, or combination of these substances in concentrations indicated in FIG. 4A.

Cc1cccc(CNc2ncnc3nc[nH]c23)c1O [Compound 8, 6-(2-hydroxy-3-methylbenzylamino)purine]
elongation of the primary root, wild-type seedlings ([1]; 1 μM, wild-type): did not affect | elongation of the primary root, other two receptor double mutants ([1]; data not shown): No significant changes | root branching in the presence of cytokinin BA ([2]; compound 8 combined with BA, 14 DAG old plants): Clear antagonistic effect | lateral roots in double receptor mutants ([2]; mutants with only one of three receptors functional): effect was best seen with ahk2ahk3 mutants | root branching, compound applied alone ([2]; submicromolar concentrations (1 and 10 nM)): positive effect on root branching
